Our source for the binding signal values is publication PMC7819943, “Rice protein-binding microarrays: a tool to detect cis-acting elements near promoter regions in rice”.

The chains behind the UniProt entries cited, without tags or fusion partners.
UniProt Q0JBA9, entry or part of it: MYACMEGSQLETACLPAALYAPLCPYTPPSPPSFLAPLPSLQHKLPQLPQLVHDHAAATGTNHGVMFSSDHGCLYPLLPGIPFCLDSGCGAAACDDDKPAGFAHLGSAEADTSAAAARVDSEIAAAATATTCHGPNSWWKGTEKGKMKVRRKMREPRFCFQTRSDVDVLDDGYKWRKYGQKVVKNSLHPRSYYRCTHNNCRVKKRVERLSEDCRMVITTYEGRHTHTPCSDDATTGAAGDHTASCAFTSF

The other results are listed elsewhere or left out.

The target in the experiment is OsWRKY34 (Oryza sativa, UniProt Q0JBA9 1-250). Description: protein-binding microarray (RPBM); PBS, 2% BSA, 51.3 ng/ul salmon testes DNA, 50 uM zinc acetate, 200 nM TF, 25 C, 1 h; high values mean tight binding. The note with it: protein: recombinant; tags: N-terminal polyhistidine and DsRed monomer fusion (pET32a); label: CyDye5-dUTP incorporated in the synthesized complementary strand; 3' TTTTT single-stranded linker to array surface; dsDNA, one strand shown. In short, it runs like this:
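Binding signal here means per-feature fluorescence intensity in arbitrary units. The values were read on an Axon 4000B scanner after a custom Agilent array, double-stranded by primer extension with Cy5-dUTP, was incubated with 200 nM protein at 25 °C for 1 h in PBS with 2% BSA, salmon testes DNA and 50 µM zinc acetate, then washed. The proteins were transcription factors with an N-terminal polyhistidine tag and DsRed, expressed in E. coli BL21-CodonPlus and purified on Ni–NTA.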
“TCCACGCGTACGTCCAGATCAAACGCCCCAGTTCCGTAGCCGGAGTCACCTAGTGCAG”: the binding signal is 8370 fluorescence intensity (a.u.).
As to “CACCACCACCACCGCTGCTGACTTCATCGCATCAGAACCACGGAGTCACCTAGTGCAG”, the binding signal was 13200 fluorescence intensity (a.u.).
Under “CACAACTATTTCTACTTTTATCATTCCTACCTTTTCTAATCGGAGTCACCTAGTGCAG” stands 8180 fluorescence intensity (a.u.).
Turning to “AATGCAAACTTCATTTGTACCTTTTCCCACTTTTATTACTCGGAGTCACCTAGTGCAG”, the binding signal is 8500 fluorescence intensity (a.u.).
Take “ATCTCACCAACATTACCTTGTTTAAACCGCTGGGTCTTTTCGGAGTCACCTAGTGCAG”: the binding signal was 10000 fluorescence intensity (a.u.).
Turning to “ACCGCTGCTAGCTGCCGCCCGTCCCACTTCTCCAAGAAAACGGAGTCACCTAGTGCAG”, the binding signal is 8420 fluorescence intensity (a.u.).
“TGAATCCACAGCCACGCCACGCGGCCCATGCCTACGCCTCCGGAGTCACCTAGTGCAG”: the binding signal was 8550 fluorescence intensity (a.u.).
On to “GGGTGTTCCTTGTTGTCGTCCGCCTGTCAAATCCTAGTCACGGAGTCACCTAGTGCAG”, for which the binding signal is 15900 fluorescence intensity (a.u.).
With “GCCGCCAGTTCTGCCCTCGAGCGCCGCCGCCCGCCGCGCCCGGAGTCACCTAGTGCAG”, the binding signal was 10300 fluorescence intensity (a.u.).
As for “TTAATTTTTGTTGTTCTGGCAAACCTTTCGTTGTAATTGACGGAGTCACCTAGTGCAG”, the binding signal is 8690 fluorescence intensity (a.u.).
Under “GTCGCAACCAACCAACCAACAACCACTCCATCAAACTAACCGGAGTCACCTAGTGCAG” stands 8220 fluorescence intensity (a.u.); under “CCGCGCCACCTCATGCCGTGACGTGCAGATCCCCTCCTCCCGGAGTCACCTAGTGCAG”, 9350 fluorescence intensity (a.u.); under “CATCTCGTGACCTCGCGCCATTGATTTCTTCCTCTGGAGCCGGAGTCACCTAGTGCAG”, 9650 fluorescence intensity (a.u.).
For the sequence “ACGCATGCGCGCGCGCCGCCTCCACCTGCTCTCTGCTCGACGGAGTCACCTAGTGCAG”, the binding signal is 10000 fluorescence intensity (a.u.).
Turning to “TACAGGCTTACAGCTAGCCAGCGTCCACTTGCACGGTTTTCGGAGTCACCTAGTGCAG”, the binding signal was 8790 fluorescence intensity (a.u.).
Regarding “ATACGAGCCAAAGACCGTTGACAAGCTAGTCAACAGTCATCGGAGTCACCTAGTGCAG”, the binding signal is 8910 fluorescence intensity (a.u.).
Turning to “CCATGTGCGCCCATCCTCCCGGCACTAACTCTCAAGCCGACGGAGTCACCTAGTGCAG”, the binding signal is 9510 fluorescence intensity (a.u.).
For “GGCCATGCTTGAATCTCTCGCCTGACATTCAGACTTCAGACGGAGTCACCTAGTGCAG”, the binding signal is 8390 fluorescence intensity (a.u.).
Regarding “ATCTCTCTCTGTCGTCTCGCCTCGCCCAAATCAGAAGCGACGGAGTCACCTAGTGCAG”, the binding signal was 9080 fluorescence intensity (a.u.).
“TCACTATCTTCACCACTGCACAAGTCATTCATTGTCTTATCGGAGTCACCTAGTGCAG”: the binding signal was 10300 fluorescence intensity (a.u.).
For the sequence “CGTCACGTCAACCCCACAAACTAGGTCAACACCGTCACGTCGGAGTCACCTAGTGCAG”, the binding signal is 8760 fluorescence intensity (a.u.).
“ACCACCACCACCACCATCGCACTCCCAACTCCCAAGCCGCCGGAGTCACCTAGTGCAG”: the binding signal was 9280 fluorescence intensity (a.u.).
Under “GAGGGAGGGAGGGAGGGAGACCGCGAGTGTGAGTGACTGCCGGAGTCACCTAGTGCAG” stands 10200 fluorescence intensity (a.u.).
For “TCCCACTCCACCTTTGCCTCGTCGTCTCAATCGCCTTCGTCGGAGTCACCTAGTGCAG”, the binding signal is 11200 fluorescence intensity (a.u.).
With “TTAATTAATCATTCAGTAATGCGTGCTCTGTTTTACGTGCCGGAGTCACCTAGTGCAG”, the binding signal was 8400 fluorescence intensity (a.u.).
The result for “GATGTTTTGACTTTGATTAAAGTCAAACTAAGTTTGGCTACGGAGTCACCTAGTGCAG” reads 11200 fluorescence intensity (a.u.); that for “CGCGCGTGCCCGTTTCTCTCGATCTCGCCACGGCTAGCTACGGAGTCACCTAGTGCAG”, 11200 fluorescence intensity (a.u.); that for “GTTAGTATGATTGTTAGTCAAAAGTTATCAAGTTTGATTTCGGAGTCACCTAGTGCAG”, 8360 fluorescence intensity (a.u.).
As to “CACTAGGTGAGCAATTTTGTTACCACGTCCATGTGCTGATCGGAGTCACCTAGTGCAG”, the binding signal is 8810 fluorescence intensity (a.u.).
Take “TAGGCTGTATTCTTATCCACTCATGCAGTGCTCTGATAGGCGGAGTCACCTAGTGCAG”: the binding signal is 11000 fluorescence intensity (a.u.).
The result for “TCCACCTCTCACTGTTGTTCACCGTCTCCTGGCTCCTGCCCGGAGTCACCTAGTGCAG” reads 8570 fluorescence intensity (a.u.); that for “CATATGTTGTTACCTTTTGGTTGTTTGCTTTGCATTATAACGGAGTCACCTAGTGCAG”, 10200 fluorescence intensity (a.u.).
Regarding “GCCGCCATCGTTCCTGTTCGCCGCCCGTTGTCCTTCCAATCGGAGTCACCTAGTGCAG”, the binding signal was 13000 fluorescence intensity (a.u.).
The result for “GCCACGGATAAATTTCCACCGCCTTCGCCTTCGCGAGATCCGGAGTCACCTAGTGCAG” reads 8150 fluorescence intensity (a.u.).
Regarding “GATGATCCTCACACATCAAGACTAGTATTTTGGGTTGTATCGGAGTCACCTAGTGCAG”, the binding signal is 8550 fluorescence intensity (a.u.).
For “TCATATACCTCGCGATCCCTCTCACCGCCGATCGATCGAGCGGAGTCACCTAGTGCAG”, the binding signal is 12100 fluorescence intensity (a.u.).
Take “CCTATTTTCTAACGGTGCCTACGGATTTTATCCAACTTTACGGAGTCACCTAGTGCAG”: the binding signal was 9510 fluorescence intensity (a.u.).
Regarding “TTAATTGCTAAGCTGTTCCGTCCATGGTTCACACTTCACACGGAGTCACCTAGTGCAG”, the binding signal is 8060 fluorescence intensity (a.u.).
“TATATATATATATATATATATATATATATATATATGAAAGCGGAGTCACCTAGTGCAG”: the binding signal was 8250 fluorescence intensity (a.u.).
“TATTTGTGATCCCGTGCATGCACTTTGGCACTCGTCCATGCGGAGTCACCTAGTGCAG”: the binding signal was 9750 fluorescence intensity (a.u.).
Take “TCTCCATCGTGCCATCCACCGCGCGCTTCCGTCCACTCGCCGGAGTCACCTAGTGCAG”: the binding signal is 13000 fluorescence intensity (a.u.).
Under “GCCTGTCGTTGGTGACTGTATTAGCTTAGTTTCCAGTGGTCGGAGTCACCTAGTGCAG” stands 9060 fluorescence intensity (a.u.).
